No constants are given. Whether binding was seen depends on the method and setting. For some of these results: In cells and extracts the contact can be indirect. Some binding calls cover weakened binding; strength is not graded here. For some of these results: Sequences can lack the tags named with a protein. Each block holds one binder with its values, some of them ahead of it.
What was measured:
[1] = target: T1, OGT4.5 (crystallization construct of OGT with only 4.5 of 13.5 TPR repeats) (human) (UniProt O15294); experiment: crystal structure; OGT4.5 co-crystallised with 2 mM peptide and 1 mM UDP-GlcNAc; hanging drop, 20 C; both purified
T1 sequence: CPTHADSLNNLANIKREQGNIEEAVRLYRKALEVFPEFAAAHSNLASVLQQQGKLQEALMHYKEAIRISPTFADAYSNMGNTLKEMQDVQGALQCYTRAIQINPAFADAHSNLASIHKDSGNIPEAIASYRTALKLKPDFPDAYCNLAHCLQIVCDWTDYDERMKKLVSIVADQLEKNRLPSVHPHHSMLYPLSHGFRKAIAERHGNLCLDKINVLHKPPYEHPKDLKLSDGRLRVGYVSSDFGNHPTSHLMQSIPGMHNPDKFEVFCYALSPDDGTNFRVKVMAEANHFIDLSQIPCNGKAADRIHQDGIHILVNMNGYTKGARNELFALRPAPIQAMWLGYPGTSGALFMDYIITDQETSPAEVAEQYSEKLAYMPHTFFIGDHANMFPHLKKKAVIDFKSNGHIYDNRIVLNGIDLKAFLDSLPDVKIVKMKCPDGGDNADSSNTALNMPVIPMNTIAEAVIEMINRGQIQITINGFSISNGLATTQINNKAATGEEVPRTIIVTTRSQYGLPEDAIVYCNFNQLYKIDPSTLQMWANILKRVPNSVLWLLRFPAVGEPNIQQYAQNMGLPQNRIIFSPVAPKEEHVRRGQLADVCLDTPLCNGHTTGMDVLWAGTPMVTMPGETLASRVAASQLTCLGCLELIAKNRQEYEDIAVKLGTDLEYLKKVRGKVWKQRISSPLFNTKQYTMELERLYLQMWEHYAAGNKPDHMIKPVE

By UniProt entry, the sequences of proteins in these tests, tags left out. Where a name states a change or a piece, a line headed by the entry shows the natural chain unless it says otherwise.
UniProt Q5JPB2: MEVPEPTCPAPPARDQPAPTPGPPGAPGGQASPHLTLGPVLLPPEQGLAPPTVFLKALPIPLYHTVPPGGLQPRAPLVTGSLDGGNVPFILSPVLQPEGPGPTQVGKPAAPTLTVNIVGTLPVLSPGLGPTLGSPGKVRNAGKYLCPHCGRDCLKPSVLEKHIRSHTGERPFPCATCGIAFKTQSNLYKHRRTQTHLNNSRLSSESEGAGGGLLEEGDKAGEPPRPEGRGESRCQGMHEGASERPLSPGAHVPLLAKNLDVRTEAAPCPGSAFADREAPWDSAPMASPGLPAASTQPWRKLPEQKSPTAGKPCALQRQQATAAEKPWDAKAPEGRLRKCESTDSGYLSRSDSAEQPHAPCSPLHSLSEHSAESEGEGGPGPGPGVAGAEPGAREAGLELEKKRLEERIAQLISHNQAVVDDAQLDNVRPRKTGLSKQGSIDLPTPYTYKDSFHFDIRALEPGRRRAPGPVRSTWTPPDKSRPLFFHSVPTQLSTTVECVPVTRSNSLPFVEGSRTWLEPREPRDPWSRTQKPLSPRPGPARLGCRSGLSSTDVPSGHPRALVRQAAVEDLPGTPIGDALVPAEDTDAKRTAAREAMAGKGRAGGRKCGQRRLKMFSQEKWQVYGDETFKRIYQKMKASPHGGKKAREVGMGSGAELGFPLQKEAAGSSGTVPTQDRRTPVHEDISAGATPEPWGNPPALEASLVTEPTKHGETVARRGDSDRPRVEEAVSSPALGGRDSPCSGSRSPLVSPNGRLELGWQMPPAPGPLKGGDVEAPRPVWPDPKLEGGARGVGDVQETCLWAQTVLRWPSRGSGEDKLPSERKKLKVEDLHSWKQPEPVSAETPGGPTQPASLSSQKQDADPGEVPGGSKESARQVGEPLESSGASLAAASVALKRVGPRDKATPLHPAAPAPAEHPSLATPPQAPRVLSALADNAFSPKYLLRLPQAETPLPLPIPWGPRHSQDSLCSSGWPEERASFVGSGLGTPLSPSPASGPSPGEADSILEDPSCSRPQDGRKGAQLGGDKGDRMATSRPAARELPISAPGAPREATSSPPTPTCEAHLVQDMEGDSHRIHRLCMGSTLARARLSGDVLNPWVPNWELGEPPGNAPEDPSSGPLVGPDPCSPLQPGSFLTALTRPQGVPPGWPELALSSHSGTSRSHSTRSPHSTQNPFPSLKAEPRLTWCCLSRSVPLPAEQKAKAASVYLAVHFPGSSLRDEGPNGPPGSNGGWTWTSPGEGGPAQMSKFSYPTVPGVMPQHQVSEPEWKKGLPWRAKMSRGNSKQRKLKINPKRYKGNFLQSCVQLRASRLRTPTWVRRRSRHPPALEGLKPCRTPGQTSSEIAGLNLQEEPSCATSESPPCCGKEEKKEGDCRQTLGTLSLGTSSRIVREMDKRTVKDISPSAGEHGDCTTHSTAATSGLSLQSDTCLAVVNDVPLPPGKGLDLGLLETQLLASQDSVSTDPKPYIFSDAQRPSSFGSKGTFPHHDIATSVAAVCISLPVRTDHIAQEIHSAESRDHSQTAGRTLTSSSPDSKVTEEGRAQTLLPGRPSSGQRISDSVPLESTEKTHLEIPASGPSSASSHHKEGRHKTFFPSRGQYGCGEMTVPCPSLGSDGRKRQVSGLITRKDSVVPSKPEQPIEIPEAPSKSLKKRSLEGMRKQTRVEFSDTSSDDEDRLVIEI

[2] = target: T2, full-length O-GlcNAc transferase (OGT), recombinant (human) (UniProt O15294); experiment: fluorescence polarisation; competition: 2-fold serial dilutions of unlabeled peptide plus equal volume of 20 uM OGT with 0.4 uM 5-FAM-SMG9; TBS (150 mM NaCl, 20 mM Tris-HCl, pH 8.0); 20 min, room temperature; apparent binding affinity (EC50); both purified
T2 sequence: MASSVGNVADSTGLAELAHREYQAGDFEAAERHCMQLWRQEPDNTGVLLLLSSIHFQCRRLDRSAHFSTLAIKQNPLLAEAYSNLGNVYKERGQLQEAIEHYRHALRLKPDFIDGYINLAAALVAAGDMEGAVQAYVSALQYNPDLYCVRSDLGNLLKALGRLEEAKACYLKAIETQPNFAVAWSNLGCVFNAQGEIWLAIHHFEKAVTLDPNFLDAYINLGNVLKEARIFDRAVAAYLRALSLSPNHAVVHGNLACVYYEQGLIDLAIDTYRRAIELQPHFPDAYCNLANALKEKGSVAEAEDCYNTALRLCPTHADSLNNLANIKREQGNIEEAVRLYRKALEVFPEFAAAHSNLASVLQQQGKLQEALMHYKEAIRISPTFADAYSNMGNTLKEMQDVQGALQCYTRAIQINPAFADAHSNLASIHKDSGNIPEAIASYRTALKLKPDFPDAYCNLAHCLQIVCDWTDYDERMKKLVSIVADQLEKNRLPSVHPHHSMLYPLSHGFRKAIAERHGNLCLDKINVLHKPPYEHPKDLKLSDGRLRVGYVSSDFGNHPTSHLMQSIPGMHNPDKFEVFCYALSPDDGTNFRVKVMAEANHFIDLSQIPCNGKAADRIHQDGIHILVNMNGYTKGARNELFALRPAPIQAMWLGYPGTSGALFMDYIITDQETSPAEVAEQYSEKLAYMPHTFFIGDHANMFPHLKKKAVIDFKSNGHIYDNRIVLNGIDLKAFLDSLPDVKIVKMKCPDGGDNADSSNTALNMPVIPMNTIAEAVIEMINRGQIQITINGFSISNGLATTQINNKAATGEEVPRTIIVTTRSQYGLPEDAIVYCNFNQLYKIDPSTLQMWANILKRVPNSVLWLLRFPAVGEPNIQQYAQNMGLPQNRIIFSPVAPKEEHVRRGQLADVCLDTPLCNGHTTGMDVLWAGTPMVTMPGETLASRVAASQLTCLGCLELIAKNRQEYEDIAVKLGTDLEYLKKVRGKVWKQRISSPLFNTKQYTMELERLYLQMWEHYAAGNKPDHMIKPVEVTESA

[3] = target: T3, Flag-tagged OGT (wild type), mammalian expression (human) (UniProt O15294); experiment: co-IP; HEK293 cells (legend: TRex-293) co-transfected with Flag-OGT and cMyc-SMG9 constructs; lysate (150 mM NaCl, 1% NP-40, 20 mM Tris-HCl pH 7.4) on Flag M2 agarose 16 h at 4 C; western blot
T3 sequence: T2 sequence

[4] = target: T4, fluorescently labeled 5-FAM-SMG9 peptide (human) (UniProt Q9H0W8); experiment: fluorescence polarisation; saturation: 2-fold serial dilutions of OGT (WT or mutant) plus equal volume of 0.4 uM 5-FAM-SMG9; TBS (150 mM NaCl, 20 mM Tris-HCl, pH 8.0); 20 min, room temperature; both purified
T4 sequence (peptide, 5-FAM label (position not stated)): QRPTQPVYQIQNRGMG

[5] = target: T4, fluorescently labeled 5-FAM-SMG9 peptide (human); experiment: fluorescence polarisation; competition: 2-fold serial dilutions of unlabeled peptide plus equal volume of 20 uM OGT with 0.4 uM 5-FAM-SMG9; TBS (150 mM NaCl, 20 mM Tris-HCl, pH 8.0); 20 min, room temperature; apparent binding affinity (EC50); both purified

Binder: QRPTQPVYQIQNRGMG (peptide, UniProt Q9H0W8 140-155) [SMG9 peptide (140-155 aa), unlabeled]
binding [1]: binds
binding [2]: binds

Binder: VLSALADNAFSPKYLL (peptide, UniProt Q5JPB2 928-943) [ZNF831 peptide (928-943 aa)]
binding [1]: binds
binding [2]: binds

Further lines, results first:

binding [3]: binds
B1: cMyc-tagged SMG9 (wild type) (protein, UniProt Q9H0W8 1-520)
chain: MSESGHSQPGLYGIERRRRWKEPGSGGPQNLSGPGGRERDYIAPWERERRDASEETSTSVMQKTPIILSKPPAERSKQPPPPTAPAAPPAPAPLEKPIVLMKPREEGKGPVAVTGASTPEGTAPPPPAAPAPPKGEKEGQRPTQPVYQIQNRGMGTAAPAAMDPVVGQAKLLPPERMKHSIKLVDDQMNWCDSAIEYLLDQTDVLVVGVLGLQGTGKSMVMSLLSANTPEEDQRTYVFRAQSAEMKERGGNQTSGIDFFITQERIVFLDTQPILSPSILDHLINNDRKLPPEYNLPHTYVEMQSLQIAAFLFTVCHVVIVVQDWFTDLSLYRFLQTAEMVKPSTPSPSHESSSSSGSDEGTEYYPHLVFLQNKARREDFCPRKLRQMHLMIDQLMAHSHLRYKGTLSMLQCNVFPGLPPDFLDSEVNLFLVPFMDSEAESENPPRAGPGSSPLFSLLPGYRGHPSFQSLVSKLRSQVMSMARPQLSHTILTEKNWFHYAARIWDGVRKSSALAEYSRLLA

binding [4]: binds
binding [5]: binds
B2: full-length O-GlcNAc transferase (OGT), recombinant (enzyme, UniProt O15294-3 1-1036)
chain: T2 sequence

— PMC9915769, “A novel binding site on the cryptic intervening domain is a motif-dependent regulator of O-GlcNAc transferase” (Research Square, 2023)
